The source of these data is publication PMC8481544.

Sequences of proteins named here, by UniProt entry; tags and fusion partners are left off.
UniProt Q96KQ7: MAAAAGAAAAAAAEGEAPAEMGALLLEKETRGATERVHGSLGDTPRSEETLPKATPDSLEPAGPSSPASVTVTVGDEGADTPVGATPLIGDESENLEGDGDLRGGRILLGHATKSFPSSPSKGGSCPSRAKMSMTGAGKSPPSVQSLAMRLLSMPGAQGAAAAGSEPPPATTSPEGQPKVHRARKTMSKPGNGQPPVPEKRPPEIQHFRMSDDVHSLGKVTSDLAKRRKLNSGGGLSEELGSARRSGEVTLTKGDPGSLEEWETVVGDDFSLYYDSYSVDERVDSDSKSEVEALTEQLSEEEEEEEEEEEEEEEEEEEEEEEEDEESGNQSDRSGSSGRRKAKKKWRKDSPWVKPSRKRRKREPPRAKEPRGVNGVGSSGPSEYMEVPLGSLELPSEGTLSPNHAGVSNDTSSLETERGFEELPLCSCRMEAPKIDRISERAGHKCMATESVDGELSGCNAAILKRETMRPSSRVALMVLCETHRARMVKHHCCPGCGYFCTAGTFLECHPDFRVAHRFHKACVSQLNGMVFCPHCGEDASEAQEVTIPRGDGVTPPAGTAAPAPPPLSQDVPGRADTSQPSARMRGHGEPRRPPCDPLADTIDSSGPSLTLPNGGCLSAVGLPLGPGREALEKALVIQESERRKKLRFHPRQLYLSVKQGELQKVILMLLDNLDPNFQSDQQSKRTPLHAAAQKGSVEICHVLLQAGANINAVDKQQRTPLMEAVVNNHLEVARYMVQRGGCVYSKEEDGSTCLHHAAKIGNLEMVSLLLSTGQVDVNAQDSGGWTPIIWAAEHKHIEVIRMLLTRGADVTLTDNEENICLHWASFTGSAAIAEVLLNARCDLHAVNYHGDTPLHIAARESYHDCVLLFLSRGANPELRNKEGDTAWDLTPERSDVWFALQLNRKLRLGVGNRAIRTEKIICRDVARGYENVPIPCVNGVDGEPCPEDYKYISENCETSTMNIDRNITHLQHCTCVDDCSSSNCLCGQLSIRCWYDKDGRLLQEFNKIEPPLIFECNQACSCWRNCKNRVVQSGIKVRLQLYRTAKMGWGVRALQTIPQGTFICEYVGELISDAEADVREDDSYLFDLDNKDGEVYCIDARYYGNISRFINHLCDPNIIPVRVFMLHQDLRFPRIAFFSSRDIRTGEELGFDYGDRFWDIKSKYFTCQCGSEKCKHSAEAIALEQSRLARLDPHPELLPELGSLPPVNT
UniProt O43791: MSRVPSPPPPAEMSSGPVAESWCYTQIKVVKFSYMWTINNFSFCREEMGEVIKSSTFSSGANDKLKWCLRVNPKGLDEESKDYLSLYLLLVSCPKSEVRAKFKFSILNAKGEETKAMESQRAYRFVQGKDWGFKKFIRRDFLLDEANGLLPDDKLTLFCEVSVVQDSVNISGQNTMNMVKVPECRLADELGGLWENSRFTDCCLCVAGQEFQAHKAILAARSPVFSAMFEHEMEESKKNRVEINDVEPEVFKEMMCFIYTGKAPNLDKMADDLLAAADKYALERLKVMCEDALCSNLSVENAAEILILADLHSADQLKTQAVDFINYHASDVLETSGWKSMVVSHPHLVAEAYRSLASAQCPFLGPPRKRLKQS

No constants are given. Whether binding was seen depends on the method and setting. Binding seen in cells or lysates may run through a third protein.

The target in experiment [1] is Flag-G9a, expressed in 293T cells (UniProt Q96KQ7). As to the kind of experiment: co-IP; 293T cells transfected with both proteins; 20 µM MG132 for 8 h (told for Fig. 2e and 3a); lysis buffer 50 mM Tris-HCl pH 7.5, 150 mM NaCl, 0.5% Nonidet P-40; antibody and protein A/G beads at 4 °C overnight.
For experiment [2], the target named is endogenous G9a (22Rv1 cells) (human (endogenous in 22Rv1)) (UniProt Q96KQ7). As to the kind of experiment: co-IP; endogenous proteins of 22Rv1 cells treated with 20 µM MG132 for 8 h; antibody and protein A/G beads at 4 °C overnight.
The target in experiment [3] is endogenous SPOP (22Rv1 cells) (human (endogenous in 22Rv1)) (UniProt O43791). The description is as above.

For the substance “SPOP wild type, ectopically expressed in 293T cells (from UniProt O43791 1-374)”, the binding result in experiment [1] was “no binding”.
Take “endogenous SPOP (22Rv1 cells) (from UniProt O43791 1-374)”: the binding result in experiment [2] is recorded as “no binding”.
Take “endogenous G9a (22Rv1 cells) (from UniProt Q96KQ7 1-1210)”: the binding result in experiment [3] is “no binding”.
